Assay results reported in patent US20250281480A1, “PHARMACEUTICAL DRY POWDER INHALATION FORMULATION” (Bayer Aktiengesellschaft, priority 2021, published 2025).
Where “and” joins values, the source holds several entries; their conditions need not be identical. Equal values may be shown once. This continues a long series; more values of the same kind are listed elsewhere.

Test system: anesthetized PAH minipigs
Assay: PAH minipig, intratracheal application of dry powder formulations and of different hydrates (PAP, BP)
Assay type: in vivo, Göttingen Minipigs
Details: 375 μg/kg i.t.; for PAP(mean) / BP (mean): per animal; for BP / PAP: % vs. prevalues, each animal
Method: Healthy Göttingen Minipigs® Ellegaard (Ellegaard, Denmark) of both sexes and having a weight of 2-6 kg were used. The animals were sedated by i.m. administration of about 25 mg/kg ketamine and about 10 mg/kg azaperone. Anaesthesia was initiated by i.v. administration of about 2 mg/kg ketamine and about 0.3 mg/kg midazolam. Maintenance of anaesthesia was by i.v. administration of about 7.5-30 mg/kg/h ketamine and about 1-4 mg/kg/h midazolam (rate of infusion 1-4 ml/kg/h) and about 150 μg/kg/h pancuronium bromide (for example Pancuronium-Actavis). After intubation, the animals were ventilated by the ventilator at a constant respiratory volume (10-12 ml/kg, 35 breaths/min; Avea®, Viasys Healthcare, USA, or Engström Carestation, GE Healthcare, Freiburg, Germany) such that an end-tidal CO2 concentration of about 5% was achieved. Ventilation was performed with room air, enriched with about 40% oxygen (normoxia). For the measurement of the haemodynamic parameters such as pulmonary arterial pressure (PAP), blood pressure (BP) and heart rate (HR), catheters were inserted into the carotid artery to measure the blood pressure, and a Swan-Ganz® catheter was introduced in a flow-directed manner via the jugular vein into the pulmonary artery. The haemodynamic signals were recorded and evaluated by means of pressure transducers (Combitransducer, B. Braun, Melsungen, Germany)/amplifiers and Ponemah® as data acquisition software.
About 0.3-0.75 μg/kg/min of 9,11-didesoxy-9α,11α-epoxymethanoprostaglandine F2α (U-44069; Sigma, cat. no. D0400, or Cayman Chemical Company, cat. no. 16440), dissolved in physiological saline, were infused to achieve an increase of the mean pulmonary arterial pressure to values of over 25 mmHg.
After characterization of the effects of comparative example 11 after nebulization of compound solutions, in a further step the effects of crystalline forms of comparative example 11, e.g. sesquihydrate, e.g. example 6e on PAP and BP after inhaled application of different dry powder lactose formulations (table 52) were studied in anesthetized PAH minipigs.
As reference pure Lactose vehicle was applied in the beginning of each experiment.

O.O.O.O=C(O)c1ccc(CCN(CCc2ccccc2OCc2ccc(-c3ccc(C(F)(F)F)cc3)cc2Cl)[C@H]2CCCc3nc(C(=O)O)ccc32)cc1.O=C(O)c1ccc(CCN(CCc2ccccc2OCc2ccc(-c3ccc(C(F)(F)F)cc3)cc2Cl)[C@H]2CCCc3nc(C(=O)O)ccc32)cc1 [Example 6e, (5S)—{[2-(4-Carboxyphenyl)ethyl][2-(2-{[3-chloro-4′-(trifluoromethyl)biphenyl-4-yl]methoxy}phenyl)-ethyl]amino}-5,6,7,8-tetrahydroquinoline-2-carboxylic Acid Sesquihydrate]
PAP(mean) (time 0, Sesquihydrate): 37.5 mmHg
BP (mean) (time 10, Sesquihydrate): 108 mmHg and 119 mmHg
PAP(mean) (time 10, Sesquihydrate): 42.0 mmHg and 37.3 mmHg and 38.6 mmHg
BP (mean) (time 20): 99 mmHg
BP (mean) (time 20, Sesquihydrate): 109 mmHg and 118 mmHg
PAP(mean) (time 20, Sesquihydrate): 41.4 mmHg and 37.4 mmHg and 39.8 mmHg
BP (mean) (time 30): 100 mmHg
BP (mean) (time 30, Sesquihydrate): 107 mmHg and 118 mmHg
PAP(mean) (time 30, Sesquihydrate): 41.4 mmHg and 36.8 mmHg and 41.2 mmHg
BP (mean) (time 40): 100 mmHg
BP (mean) (time 40, Sesquihydrate): 109 mmHg and 118 mmHg
PAP(mean) (time 40, Sesquihydrate): 41.0 mmHg and 37.4 mmHg and 41.3 mmHg
BP (mean) (time 50, Sesquihydrate): 101 mmHg and 114 mmHg and 119 mmHg
PAP(mean) (time 50, Sesquihydrate): 40.9 mmHg and 38.1 mmHg and 40.8 mmHg
BP (mean) (time 60): 102 mmHg
BP (mean) (time 60, Sesquihydrate): 116 mmHg and 118 mmHg
PAP(mean) (time 60, Sesquihydrate): 40.4 mmHg and 39.5 mmHg and 40.7 mmHg
BP (mean) (time 70): 99 mmHg
BP (mean) (time 70, Sesquihydrate): 111 mmHg and 117 mmHg
PAP(mean) (time 70, Sesquihydrate): 40.7 mmHg and 38.7 mmHg and 39.6 mmHg
BP (mean) (time 80, Sesquihydrate): 101 mmHg and 112 mmHg and 116 mmHg
PAP(mean) (time 80, Sesquihydrate): 36.5 mmHg and 37.6 mmHg and 35.4 mmHg
BP (mean) (time 90, Sesquihydrate): 101 mmHg and 114 mmHg and 115 mmHg
PAP(mean) (time 90, Sesquihydrate): 34.3 mmHg and 36.4 mmHg and 30.8 mmHg
BP (mean) (time 100, Sesquihydrate): 101 mmHg and 114 mmHg and 115 mmHg
PAP(mean) (time 100, Sesquihydrate): 32.3 mmHg and 35.7 mmHg and 28.6 mmHg
BP (mean) (time 110, Sesquihydrate): 99 mmHg and 120 mmHg and 114 mmHg
PAP(mean) (time 110, Sesquihydrate): 30.8 mmHg and 35.0 mmHg and 27.5 mmHg
BP (mean) (time 120): 99 mmHg
BP (mean) (time 120, Sesquihydrate): 121 mmHg and 114 mmHg
PAP(mean) (time 120, Sesquihydrate): 30.3 mmHg and 29.0 mmHg and 26.6 mmHg
BP (mean) (time 130): 100 mmHg
BP (mean) (time 130, Sesquihydrate): 122 mmHg and 114 mmHg
PAP(mean) (time 130, Sesquihydrate): 29.0 mmHg and 30.3 mmHg and 26.9 mmHg
BP (mean) (time 140, Sesquihydrate): 101 mmHg and 121 mmHg and 115 mmHg
PAP(mean) (time 140, Sesquihydrate): 28.0 mmHg and 28.3 mmHg and 25.1 mmHg
BP (mean) (time 150): 99 mmHg
BP (mean) (time 150, Sesquihydrate): 119 mmHg and 115 mmHg
PAP(mean) (time 150, Sesquihydrate): 25.8 mmHg and 30.8 mmHg and 25.3 mmHg
BP (mean) (time 160): 99 mmHg
BP (mean) (time 160, Sesquihydrate): 123 mmHg and 114 mmHg
PAP(mean) (time 160, Sesquihydrate): 25.1 mmHg and 30.8 mmHg and 23.9 mmHg
BP (mean) (time 170): 98 mmHg
BP (mean) (time 170, Sesquihydrate): 116 mmHg and 113 mmHg
PAP(mean) (time 170, Sesquihydrate): 25.5 mmHg and 30.6 mmHg and 24.6 mmHg
BP (mean) (time 180): 99 mmHg
BP (mean) (time 180, Sesquihydrate): 117 mmHg and 116 mmHg
PAP(mean) (time 180, Sesquihydrate): 25.0 mmHg and 30.8 mmHg and 24.2 mmHg
BP (mean) (time 190): 97 mmHg
BP (mean) (time 190, Sesquihydrate): 123 mmHg and 114 mmHg
PAP(mean) (time 190, Sesquihydrate): 24.3 mmHg and 32.9 mmHg and 23.6 mmHg
BP (mean) (time 200): 97 mmHg
BP (mean) (time 200, Sesquihydrate): 119 mmHg and 114 mmHg
PAP(mean) (time 200, Sesquihydrate): 24.0 mmHg and 31.5 mmHg and 23.6 mmHg
BP (mean) (time 210): 97 mmHg
BP (mean) (time 210, Sesquihydrate): 119 mmHg and 112 mmHg
PAP(mean) (time 210, Sesquihydrate): 24.3 mmHg and 31.0 mmHg and 23.5 mmHg
BP (mean) (time 220): 97 mmHg
BP (mean) (time 220, Sesquihydrate): 118 mmHg and 111 mmHg
PAP(mean) (time 220, Sesquihydrate): 24.2 mmHg and 31.3 mmHg and 22.9 mmHg
BP (mean) (time 230): 96 mmHg
BP (mean) (time 230, Sesquihydrate): 116 mmHg and 112 mmHg
PAP(mean) (time 230, Sesquihydrate): 24.0 mmHg and 31.5 mmHg and 23.5 mmHg
BP (mean) (time 240): 99 mmHg
BP (mean) (time 240, Sesquihydrate): 115 mmHg and 109 mmHg
PAP(mean) (time 240, Sesquihydrate): 24.5 mmHg and 29.8 mmHg and 22.6 mmHg
BP (mean) (time 250, Sesquihydrate): 97 mmHg and 111 mmHg and 110 mmHg
PAP(mean) (time 250, Sesquihydrate): 23.9 mmHg and 29.8 mmHg and 22.8 mmHg
BP (mean) (time 260, Sesquihydrate): 97 mmHg and 110 mmHg and 107 mmHg
PAP(mean) (time 260, Sesquihydrate): 23.5 mmHg and 30.3 mmHg and 22.0 mmHg
BP (mean) (time 270): 98 mmHg
BP (mean) (time 270, Sesquihydrate): 109 mmHg and 108 mmHg
PAP(mean) (time 270, Sesquihydrate): 24.6 mmHg and 30.0 mmHg and 22.2 mmHg
BP (mean) (time 280): 97 mmHg
BP (mean) (time 280, Sesquihydrate): 109 mmHg and 105 mmHg
PAP(mean) (time 280, Sesquihydrate): 23.9 mmHg and 29.6 mmHg and 21.9 mmHg
BP (mean) (time 290): 94 mmHg
BP (mean) (time 290, Sesquihydrate): 108 mmHg and 105 mmHg
PAP(mean) (time 290, Sesquihydrate): 25.3 mmHg and 29.1 mmHg and 22.5 mmHg
BP (mean) (time 300): 97 mmHg
BP (mean) (time 300, Sesquihydrate): 108 mmHg and 105 mmHg
PAP(mean) (time 300, Sesquihydrate): 25.1 mmHg and 28.5 mmHg and 21.6 mmHg
BP (time 50, Sesquihydrate): 101.4% and 98.5% and 100.3%
PAP (time 50, Sesquihydrate): 98.3% and 96.2% and 101.2%
BP (time 60, Sesquihydrate): 102.5% and 100.3% and 99.4%
PAP (time 60, Sesquihydrate): 97.2% and 99.6% and 101.1%
BP (time 70, Sesquihydrate): 99.4% and 96.0% and 98.6%
PAP (time 70, Sesquihydrate): 97.8% and 97.5% and 98.5%
BP (time 80, Sesquihydrate): 101.4% and 96.8% and 97.7%
PAP (time 80, Sesquihydrate): 87.8% and 94.9% and 87.9%
BP (time 90, Sesquihydrate): 101.4% and 98.5% and 96.9%
PAP (time 90, Sesquihydrate): 82.5% and 92.0% and 76.6%
BP (time 100, Sesquihydrate): 101.4% and 98.5% and 96.9%
PAP (time 100, Sesquihydrate): 77.6% and 90.1% and 71.1%
BP (time 110, Sesquihydrate): 99.4% and 103.7% and 96.1%
PAP (time 110, Sesquihydrate): 74.0% and 88.3% and 68.4%
BP (time 120, Sesquihydrate): 99.4% and 104.6% and 96.1%
PAP (time 120, Sesquihydrate): 72.8% and 73.1% and 66.2%
BP (time 130, Sesquihydrate): 100.4% and 105.5% and 96.1%
PAP (time 130, Sesquihydrate): 69.8% and 76.4% and 66.8%
BP (time 140, Sesquihydrate): 101.4% and 104.6% and 96.9%
PAP (time 140, Sesquihydrate): 67.3% and 71.4% and 62.2%
BP (time 150, Sesquihydrate): 99.4% and 102.9% and 96.9%
PAP (time 150, Sesquihydrate): 62.1% and 77.7% and 62.8%
BP (time 160, Sesquihydrate): 99.4% and 106.3% and 96.1%
PAP (time 160, Sesquihydrate): 60.4% and 77.7% and 59.3%
BP (time 170, Sesquihydrate): 98.4% and 100.3% and 95.2%
PAP (time 170, Sesquihydrate): 61.3% and 77.3% and 61.0%
BP (time 180, Sesquihydrate): 99.4% and 101.1% and 97.7%
PAP (time 180, Sesquihydrate): 60.0% and 77.6% and 60.1%
BP (time 190, Sesquihydrate): 97.4% and 106.3% and 96.1%
PAP (time 190, Sesquihydrate): 58.5% (2×) and 83.0%
BP (time 200, Sesquihydrate): 97.4% and 102.9% and 96.1%
PAP (time 200, Sesquihydrate): 57.6% and 79.4% and 58.5%
BP (time 210, Sesquihydrate): 97.4% and 102.9% and 94.4%
PAP (time 210, Sesquihydrate): 58.3% (2×) and 78.3%
BP (time 220, Sesquihydrate): 97.4% and 102.0% and 93.5%
PAP (time 220, Sesquihydrate): 58.3% and 79.0% and 56.8%
BP (time 230, Sesquihydrate): 96.4% and 100.3% and 94.4%
PAP (time 230, Sesquihydrate): 57.8% and 79.6% and 58.3%
BP (time 240, Sesquihydrate): 99.4% (2×) and 91.8%
PAP (time 240, Sesquihydrate): 58.9% and 75.3% and 56.1%
BP (time 250, Sesquihydrate): 97.4% and 96.0% and 92.7%
PAP (time 250, Sesquihydrate): 57.4% and 75.3% and 56.6%
BP (time 260, Sesquihydrate): 97.4% and 95.1% and 90.2%
PAP (time 260, Sesquihydrate): 56.4% and 76.5% and 54.6%
BP (time 270, Sesquihydrate): 98.4% and 94.2% and 91.0%
PAP (time 270, Sesquihydrate): 59.1% and 75.7% and 55.2%
BP (time 280, Sesquihydrate): 97.4% and 94.2% and 88.5%
PAP (time 280, Sesquihydrate): 57.4% and 74.6% and 54.4%
BP (time 290, Sesquihydrate): 94.4% and 93.4% and 85.9%
PAP (time 290, Sesquihydrate): 60.8% and 73.3% and 55.8%
BP (time 300, Sesquihydrate): 101.4% and 90.8% and 84.3%
PAP (time 300, Sesquihydrate): 60.3% and 72.0% and 53.7%
